Values of other authors as cited in patent US20080153785A1, “Pharmaceutical Compositions Containing Biophosphonate for Improving Oral Absorption” (CHONG KUN DANG PHARMACEUTICAL CORP., priority 2005, published 2008).

Details: small intestines pH 6 to 8; literature report

## NCCCC(O)(P(=O)(O)O)P(=O)(O)O [alendronate sodium]
  absorption rate: less than 1%
